Assay results as given in patent publication US5132432A, “Chemically reactive pyrenyloxy sulfonic acid dyes” (Molecular Probes, Inc., priority 1989, dated 1992).

Assay: Chemical reactivity with model compounds (TLC or HPLC)

O=C(CI)NCCCCCNC(=O)COc1cc(S(=O)(=O)[O-])c2ccc3c(S(=O)(=O)[O-])cc(S(=O)(=O)[O-])c4ccc1c2c43.[Na+].[Na+].[Na+] [Compound 7, N-(1,3,6-Trisulfo-8-pyrenyloxyacetyl)-N'-(iodoacetyl)-1,5-pentanediamine, trisodium salt]
reaction with 2-mercaptoethanol (trisodium salt): complete conversion of 7 to a new product in the presence of 2-mercaptoethanol and 2-mercaptoethanol reacts with 6 and 7

[N-]=[N+]=NC(=O)COc1cc(S(=O)(=O)[O-])c2ccc3c(S(=O)(=O)[O-])cc(S(=O)(=O)[O-])c4ccc1c2c43.[Na+].[Na+].[Na+] [Compound 9, 1,3,6-Trisulfo-8-pyrenyloxyacetyl azide, trisodium salt]
reaction with 1-aminobutane: 1-aminobutane reacts to form a new product with 9
reaction with aminodextran (to give 5): aminodextran reacts with 9 to give 5

NNC(=O)COc1cc(S(=O)(=O)[O-])c2ccc3c(S(=O)(=O)[O-])cc(S(=O)(=O)[O-])c4ccc1c2c43.[Na+].[Na+].[Na+] [Compound 12, 1,3,6-Trisulfo-8-pyrenyloxyacethydrazide, trisodium salt]
reaction with acetone (trisodium salt): reacted to form a new product in the presence of acetone; also recorded: acetone reacts with 12

O=C(CCl)NCCNC(=O)COc1cc(S(=O)(=O)O)c2ccc3c(S(=O)(=O)O)cc(S(=O)(=O)O)c4ccc1c2c43 [Compound 6]
reaction with 2-mercaptoethanol: 2-mercaptoethanol reacts with 6 and 7

Where “and” joins values, the source holds several entries; their conditions need not be identical. Equal entries are not always repeated. Entries after “also recorded” stand apart in the source; their conditions may differ. Where two headings read alike, the source gives them in different places.
